Experimental data published in US20250304549A1, “HYDROXYAMIDE DERIVATIVE AND USE THEREOF” (SICHUAN HUIYU PHARMACEUTICAL CO., LTD., priority 2022, published 2025).

What was measured:
Type in all cases: cell-based
NCI-H1417 cells = experiment: In vitro cell inhibition assay - H1417 cell proliferation (CellTiter-Glo); conditions: Homo sapiens, H1417 small cell lung cancer cell proliferation
Experimental: 3. In Vitro Cell Inhibition Assay—H1417 Cell Proliferation
The inhibitory effect of the compounds on cell proliferation was assessed by detecting the number of viable cells using the CellTiter-Glo® reagent. NCI-H1417 cells in the logarithmic growth phase were collected and inoculated into transparent-bottom 96-well plates at a density of 7×10^3 cells/well with 100 μL of medium, and incubated at 37° C., 5% CO2 overnight. The compounds were sequentially diluted in a 5-fold concentration gradient with DMSO to obtain 8 different concentrations o. These were diluted with BEGM (containing 10% FBS) cell culture medium to obtain the compound working solution (2×), which was added to the cell supernatant at 100 μL per well. The incubation continued for 7 days at 37° C., 5% CO2. The plate was then removed and equilibrated to room temperature (25° C.) along with the CellTiter-Glo® mixing reagent for 10-30 minutes. After centrifugation, 100 μL of the culture medium was carefully aspirated from each well, and 85 μL of CellTiter-Glo® reagent was added. […] The 96-well plate was subsequently placed on a multifunctional microplate reader to record the Luminescence values (RLU). • The inhibition rate was calculated using the following formula: […]
(§1) The IC50 value was determined by fitting the inhibition rate by GraphPad Prism software.

DU145 cells = experiment: In vitro cell inhibition assay - DU145 cell proliferation (CellTiter-Glo); conditions: Homo sapiens, DU-145, Du145 prostate cancer cell proliferation
Experimental: 5. In Vitro Cell Inhibition Assay—DU145 Cell Proliferation
The inhibitory effect of the compounds on cell proliferation was assessed by detecting the number of viable cells using the CellTiter-Glo® reagent. DU145 cells in the logarithmic growth phase were collected and inoculated into transparent bottom 96-well plates at a density 1×10^3 cells per well with 100 μL medium, and incubated at 37° C., 5% CO2 overnight. The compounds were sequentially diluted in a 5-fold concentration gradient with DMSO to obtain 8 different concentrations. These were then diluted with RPMI-640 (containing 10% FBS) cell culture medium to obtain the compound working solution (2×), which was added to the cell supernatant at 100 μL per well. The incubation continued for 6 days at 37° C., 5% CO2. The plate was then removed and equilibrated at room temperature (25° C.) along with the CellTiter-Glo® mixing reagent for 10-30 minutes. After centrifugation, 120 μL of the culture medium was carefully aspirated from each well, and 60 μL of CellTiter-Glo® reagent was added. […] The 96-well plate was subsequently placed on a multifunctional microplate reader to record the Luminescence values (RLU).
(§2) The inhibition rate was calculated using the following formula: […]
as §1

NCI-H69 cells = experiment: In vitro cell inhibition assay - NCI-H69 cell proliferation (CellTiter-Glo); conditions: Homo sapiens, H69 small cell lung cancer cell proliferation
Experimental: 4. In Vitro Cell Inhibition Assay—NCI-H69 Cell Proliferation
The inhibitory effect of the compounds on cell proliferation was assessed by detecting the number of viable cells using the CellTiter-Glo® reagent. NCI-H69 cells in the logarithmic growth phase were collected and inoculated into transparent bottom 96-well plates at a density 1×10^3 cells per well with 100 μL medium, and incubated at 37° C., 5% CO2 overnight. The compounds were sequentially diluted in a 5-fold concentration gradient with DMSO to obtain 8 different concentrations These were then diluted with RPMI-640 (containing 20% FBS) cell culture medium to obtain the compounds working solution (2×), which was added to the cell supernatant at 100 μL per well. The incubation continued for 7 days at 37° C., 5% CO2. The plate was then removed and equilibrated to room temperature (25° C.) along with the CellTiter-Glo® mixing reagent for 10-30 minutes. After centrifugation at 1200 rpm for 5 minutes, 120 μL of the culture medium was carefully aspirated from each well, and 60 μL of CellTiter-Glo® reagent was added. […] The 96-well plate was subsequently placed on a multifunctional microplate reader to record the Luminescence values (RLU).
as §2, §1

Compound: O=C(CCCCCCC(=O)Nc1ccccc1)NO [SAHA, Vorinostat, reference compound]
- IC50 (NCI-H1417 cells): 0.71 µM
- IC50 (DU145 cells): 1.35 µM
- IC50 (NCI-H69 cells): 0.473 µM
